Structures can show the parent of a compound that is named as a salt. The list shows a part of the results. Single values are uncertain here, since repeats match poorly.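 In a drug-repurposing library screen, luminescence reads luciferase driven by eight TEAD-binding elements, stably integrated into human kidney-derived cells. Compounds scoring over five robust Z scores above the plate mean are called hits.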

In the assay the test system is HEK293A TEAD-LUC reporter. The assay is described as follows: TEAD-luciferase reporter activity (YAP activation), robust Z score vs plate; higher = stronger YAP/TEAD activation. The settings on record: 24 h.

Consider `CCCCCCc1nc2c([nH]1)C(=O)N(C)C1=N[C@@H]3CCC[C@@H]3N12`, for which the TEAD-luciferase reporter activity (compound concentration: 200 nM) is inactive: 1.16, the TEAD-luciferase reporter activity (compound concentration: 2 uM) was inactive: 1.98 and the TEAD-luciferase reporter activity (compound concentration: 10 uM) was active: 7.54.

`CCCCCCCCCCCCCCCCCC(=O)OC(CO)CO`: the TEAD-luciferase reporter activity by setting is: (compound concentration: 200 nM) inactive: -1.45; (compound concentration: 2 uM) inactive: -1.45; (compound concentration: 10 uM) inactive: -0.565.

On to `COc1cc2c(cc1OC)[C@H]1C[C@@H](OC(=O)[C@@H](N)C(C)C)[C@H](CC(C)C)CN1CC2`, for which the TEAD-luciferase reporter activity runs as follows: (compound concentration: 200 nM) inactive: -2.83; (compound concentration: 2 uM) inactive: -1.25; (compound concentration: 10 uM) inactive: 0.362.

As for `C=CCn1nc(-c2ccc(Cl)cc2)n(C)c1=O`, the TEAD-luciferase reporter activity is inactive: -1.29 (compound concentration: 200 nM), inactive: -1.55 (compound concentration: 2 uM) and inactive: 2.51 (compound concentration: 10 uM).

`CC(C)CC(=O)O[C@H](CC(=O)OC/C=C1\OC(=O)c2ccc(Cl)cc21)C[N+](C)(C)C`: the TEAD-luciferase reporter activity was inactive: -1.16 (compound concentration: 200 nM), inactive: -2.06 (compound concentration: 2 uM) and inactive: 0.447 (compound concentration: 10 uM).

As for `CC(=O)O[C@]1(C(=O)COC(=O)CCC(=O)O)CC[C@H]2[C@@H]3CCC4=CC(=O)CCC4(C)[C@H]3CCC21C` (some centres not stated), the TEAD-luciferase reporter activity (compound concentration: 200 nM) was inactive: -0.632, the TEAD-luciferase reporter activity (compound concentration: 2 uM) was inactive: 0.457 and the TEAD-luciferase reporter activity (compound concentration: 10 uM) is inactive: 0.479.

Turning to `COc1ccc(C2Sc3ccccc3N(CCN(C)C(C)C)C(=O)C2OC(C)=O)cc1` (configuration not stated), the TEAD-luciferase reporter activity by setting is: (compound concentration: 200 nM) inactive: 0.517; (compound concentration: 2 uM) inactive: -1.16; (compound concentration: 10 uM) inactive: -1.27.

As for `[O-]Cl`, the TEAD-luciferase reporter activity by setting is: (compound concentration: 2 uM) inactive: 1.08; (compound concentration: 10 uM) inactive: -0.797.

Turning to `Cn1c(=O)cnn(CCCCN2CCN(c3ncccn3)CC2)c1=O`, the TEAD-luciferase reporter activity runs as follows: (compound concentration: 200 nM) inactive: -1.19; (compound concentration: 2 uM) inactive: -1.54; (compound concentration: 10 uM) inactive: 0.625.

As to `CC(C)CC(=O)O[C@H](CC(=O)[O-])C[N+](C)(C)C`, the TEAD-luciferase reporter activity is inactive: -0.474 (compound concentration: 200 nM), inactive: -2.28 (compound concentration: 2 uM) and inactive: 0.73 (compound concentration: 10 uM).

With `C/C=C/C(=O)N(CC)C(CC)C(=O)N(C)C` (configuration not stated), the TEAD-luciferase reporter activity by setting is: (compound concentration: 200 nM) inactive: -1.1; (compound concentration: 2 uM) inactive: 0.476; (compound concentration: 10 uM) inactive: 0.798.

For `C[C@@H]1C[C@H]2[C@@H]3CCC4=CC(=O)C=C[C@]4(C)[C@@]3(F)[C@@H](O)C[C@]2(C)[C@@]1(OC(=O)C1CC1)C(=O)COC(=O)C1CCCCC1`, the TEAD-luciferase reporter activity runs as follows: (compound concentration: 200 nM) inactive: -0.363; (compound concentration: 2 uM) inactive: 0.937; (compound concentration: 10 uM) inactive: 4.45.

Consider `CC(C)C(=O)OC[C@@]1(CCl)O[C@@H](n2ccc(N)nc2=O)[C@H](F)[C@@H]1OC(=O)C(C)C`, for which the TEAD-luciferase reporter activity (compound concentration: 200 nM) is inactive: -0.633, the TEAD-luciferase reporter activity (compound concentration: 2 uM) is inactive: 0.441 and the TEAD-luciferase reporter activity (compound concentration: 10 uM) was inactive: 0.828.

On to `Nc1ncnc2c1nc(Cl)n2C1OC2COP(=O)(O)OC2C1O` (configuration not stated) [tocladesine], for which the TEAD-luciferase reporter activity runs as follows: (compound concentration: 200 nM) inactive: 0.236; (compound concentration: 2 uM) inactive: -0.696; (compound concentration: 10 uM) inactive: 1.

As to `O=C(O)CNC(=O)CCSC(=O)c1ccccc1O` [metabolite of EP-322], the TEAD-luciferase reporter activity is, setting by setting: (compound concentration: 200 nM) inactive: -1.65; (compound concentration: 2 uM) inactive: -1.67; (compound concentration: 10 uM) inactive: -0.487.

As for `CCOC(=O)NNc1nncc2ccccc12`, the TEAD-luciferase reporter activity was inactive: -0.0062 (compound concentration: 200 nM), inactive: -0.0368 (compound concentration: 2 uM) and inactive: 2.99 (compound concentration: 10 uM).

For `Oc1ccc(Cl)c2cccnc12`, the TEAD-luciferase reporter activity was inactive: -0.961 (compound concentration: 200 nM), inactive: 3.4 (compound concentration: 2 uM) and inactive: -0.647 (compound concentration: 10 uM).

`Cc1ccccc1OCC(=O)N[C@@H](CC(C)C)C(=O)N[C@@H](Cc1ccc(OC(=O)N2CCC(C(N)=O)CC2)cc1)C(=O)O`: the TEAD-luciferase reporter activity is, setting by setting: (compound concentration: 200 nM) inactive: -0.0407; (compound concentration: 2 uM) inactive: -1.53; (compound concentration: 10 uM) inactive: 2.68.

Turning to `CC1=C(C(=O)OCCN2C(=O)c3ccccc3S2(=O)=O)C(c2cccc([N+](=O)[O-])c2)C(C(=O)OCC2CCCCO2)=C(C)N1` (configuration not stated), the TEAD-luciferase reporter activity was inactive: -2.17 (compound concentration: 200 nM), inactive: -0.916 (compound concentration: 2 uM) and inactive: 1.78 (compound concentration: 10 uM).

Regarding `O=[N+]([O-])c1ccc(NC(=S)N2CCN(c3ccccc3F)CC2)cc1`, the TEAD-luciferase reporter activity was inactive: -0.192 (compound concentration: 200 nM), inactive: -0.198 (compound concentration: 2 uM) and inactive: -2.07 (compound concentration: 10 uM).

As to `Cc1ccccc1Nc1ccccc1C(=O)N1CCCCC1`, the TEAD-luciferase reporter activity (compound concentration: 200 nM) was inactive: -0.953, the TEAD-luciferase reporter activity (compound concentration: 2 uM) is inactive: -0.82 and the TEAD-luciferase reporter activity (compound concentration: 10 uM) is inactive: 0.468.

`CC#CC(C)Oc1cc(N)c(Cl)cc1C(=O)NC1C[C@H]2CC[C@@H](C1)N2C` (some centres not stated): the TEAD-luciferase reporter activity runs as follows: (compound concentration: 200 nM) inactive: -1.92; (compound concentration: 2 uM) inactive: -0.411; (compound concentration: 10 uM) inactive: 0.472.

`N#Cc1ccc(COC[C@H]2O[C@@H](n3c(NCc4ccc(Cl)c(Cl)c4)nc4c(N)ncnc43)[C@H](O)[C@@H]2O)cc1`: the TEAD-luciferase reporter activity (compound concentration: 200 nM) was inactive: -1.41, the TEAD-luciferase reporter activity (compound concentration: 2 uM) was inactive: -0.0434 and the TEAD-luciferase reporter activity (compound concentration: 10 uM) was inactive: -1.15.

Regarding `CC(=O)Nc1ccc(/C=N/NC(N)=S)cc1F`, the TEAD-luciferase reporter activity by setting is: (compound concentration: 200 nM) active: 5.19; (compound concentration: 2 uM) inactive: 0.253; (compound concentration: 10 uM) inactive: 0.788.

Take `COCCOC(=O)C(C#N)=Cc1ccc(N2CCCCC2)cc1`: the TEAD-luciferase reporter activity is inactive: -1.18 (compound concentration: 200 nM), inactive: 2.63 (compound concentration: 2 uM) and inactive: 4.81 (compound concentration: 10 uM).

On to `Nc1ncn([C@H]2C[C@H](OP(=O)(O)OC[C@H]3O[C@@H](n4cnc5c(=O)nc(N)[nH]c54)C[C@@H]3O)[C@@H](CO)O2)c(=O)n1` [Guadecitabine sodium], for which the TEAD-luciferase reporter activity was inactive: 0.451 (compound concentration: 200 nM) and inactive: 0.808 (compound concentration: 10 uM).

Consider `CC(C)(C)[C@@H]1NC(=O)O[C@@H]2CCC[C@H]2OC/C=C/C(F)(F)c2nc3ccccc3nc2O[C@@H]2C[C@@H](C(=O)N[C@]3(C(=O)NS(=O)(=O)C4(C)CC4)C[C@H]3C(F)F)N(C2)C1=O` [Glecaprevir], for which the TEAD-luciferase reporter activity (compound concentration: 200 nM) was inactive: -0.534, the TEAD-luciferase reporter activity (compound concentration: 2 uM) is inactive: -0.874 and the TEAD-luciferase reporter activity (compound concentration: 10 uM) was inactive: -0.0851.

With `CN(CC(O)CO)C(=O)c1c(I)c(NC(=O)C(CO)CO)c(I)c(C(=O)N(C)CC(O)CO)c1I` (configuration not stated) [Iobitridol], the TEAD-luciferase reporter activity was inactive: -0.493 (compound concentration: 200 nM), inactive: -0.824 (compound concentration: 2 uM) and inactive: -0.272 (compound concentration: 10 uM).

`Cc1c(-c2cnccn2)ssc1=S` [oltipraz]: the TEAD-luciferase reporter activity reads like this: (compound concentration: 200 nM) inactive: 0.173; (compound concentration: 2 uM) inactive: 3.47; (compound concentration: 10 uM) inactive: -1.57.

With `CO/N=C(\C(=O)N[C@@H]1C(=O)N2C(C(=O)O)=C(C[n+]3ccc(N)n3CCO)CS[C@H]12)c1csc(N)n1` [Cefoselis sulfate], the TEAD-luciferase reporter activity runs as follows: (compound concentration: 200 nM) inactive: 0.0492; (compound concentration: 2 uM) inactive: -0.26; (compound concentration: 10 uM) inactive: 0.271.

Regarding `CCOc1ccc2c(c1)O/C(=C\c1ccc(OC)c(OC)c1OC)C2=O`, the TEAD-luciferase reporter activity is inactive: 0.498 (compound concentration: 200 nM), inactive: 0.831 (compound concentration: 2 uM) and inactive: 0.754 (compound concentration: 10 uM).

On to `CC[C@H]1OC(=O)[C@H](C)C(=O)[C@H](C)[C@@H](O[C@@H]2O[C@H](C)C[C@H](N(C)C)[C@H]2O)[C@](C)(OC)C[C@@H](C)C(=O)[C@H](C)[C@H]2N(C3CN(Cc4c(O)cnc5cccnc45)C3)C(=O)O[C@]12C`, for which the TEAD-luciferase reporter activity reads like this: (compound concentration: 200 nM) inactive: -1.54; (compound concentration: 2 uM) inactive: 0.888; (compound concentration: 10 uM) inactive: -1.14.

On to `NCC(=O)N[C@@H](CCC(N)=O)C(=O)O`, for which the TEAD-luciferase reporter activity is, setting by setting: (compound concentration: 200 nM) inactive: -0.158; (compound concentration: 2 uM) inactive: -1.45; (compound concentration: 10 uM) inactive: 1.42.
